PubChem BioAssay AID1671195 – Yale University – 2021
Test: 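Genes whose knockdown alters LDL uptake in liver cancer cells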 (primary screen). Cell system: human Huh7 hepatoma cells. Knock-down reagent: siRNA pool against human genes, 18 nM. Time to read-out: about 2 to 2.5 days of knockdown, then 8 h LDL uptake. Conditions: DiI-labelled LDL at 30 µg/ml for 8 h, in lipoprotein-deficient serum medium. Detection: 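Per-cell DiI-LDL intensity by automated imaging; well means scaled to the plate median and given as a robust z-score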. Scale: robust z-score: higher = more LDL uptake after knockdown. Hit rule: 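a gene counts as active if at least two replicate z-scores exceed ±2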.
This is an unselected part of about 22,000 reagents. About 1,510 of all reagents (6.9%) count as active. 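Active includes knockdowns raising or lowering LDL uptake; positive z-scores mean more uptake, negative mean less.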 A number with no mark means an inactive call. No sequences are given here.

The first 8 entries, ahead of the listing:
no.	gene	robust z-score, replicate 1	robust z-score, replicate 2	robust z-score, replicate 3
1	ARL6	-1.63	-0.795	-1.54
2	MSI2	-0.79	-0.692	-0.495
3	SLC5A7	-0.518	-0.169	-0.337
4	RPS17	-1.18	0.0387	-0.264
5	THAP9	-0.114	0.433	0.877
6	MR1	-0.0293	-0.615	0.1
7	LOC400756 (retired record)	-0.084	-0.452	-0.095
8	TTC32	1.14	0.27	-0.976

The list itself, repeating the preview:
no.	gene	robust z-score, replicate 1	robust z-score, replicate 2	robust z-score, replicate 3
1	ARL6	-1.63	-0.795	-1.54
2	MSI2	-0.79	-0.692	-0.495
3	SLC5A7	-0.518	-0.169	-0.337
4	RPS17	-1.18	0.0387	-0.264
5	THAP9	-0.114	0.433	0.877
6	MR1	-0.0293	-0.615	0.1
7	LOC400756 (retired record)	-0.084	-0.452	-0.095
8	TTC32	1.14	0.27	-0.976
9	CENPBD1P	0.785	2.14	2
10	LOC440337 (retired record)	-0.842	-0.715	-0.854
11	LOC402522 (retired record)	-0.932	-2.12	-1.55
12	PPP1R1A	-0.127	-0.591	-0.0764
13	ISG20L2	0.579	1.17	0.238
14	OR13A1	-0.532	-0.572	-0.67
15	ESPN	0.573	1.58	0.022
16	ALPK2	-1.51	-1.91	-1.46
17	LOC400400 (retired record)	-0.833	-0.459	-0.456
18	PHF19	-0.852	-1.35	-0.245
19	NR2F6	1.21	0.982	1.16
20	PDGFC	1.65	2.5	0.903
21	GRM1	0.48	-0.614	0.73
22	STAG1	-2.58	-1.35	0.227
23	TPD52L3	-0.233	0.0897	-0.364
24	PES1	-2.56 (active)	-2.01	-2.17
25	ZNF202	0.457	0.518	1.08
26	GRPR	0.0508	-0.0188	-0.315
27	FLJ34223 (retired record)	1.46	1.14	1.3
28	ANKS1B	-0.721	0.851	-1.1
29	LOC440586 (retired record)	0.64	-0.0235	-0.0302
30	ZNF831	0.821	0.95	1.13
31	RXFP3	2.05 (active)	1.53	2.5
32	SUMO2	-0.373	0.145	-0.727
33	LOC440759 (retired record)	0.464	-0.393	-0.3
34	RSPO1	-0.0881	-0.18	0.0424
35	EDRF1-DT	1.39	-0.153	0.667
36	HNRNPK	0.49	0.452	-0.413
37	ADNP2	0.193	-2.19	-0.653
38	RBM39	-1.16	-0.635	-0.659
39	HSPA12B	-0.665	1.58	0.811
40	DPYS	-0.216	-0.243	-0.337
41	GGT6	-0.638	-0.563	-0.866
42	GPR26	0.131	0.534	0.344
43	PAX1	-0.693	-0.557	-0.289
44	LDHD	-2.2 (active)	-2.05	-2.32
45	ZNF653	-0.359	-0.0251	-0.473
46	OR4D9	-0.53	-0.37	-0.54
47	FAM225B	0.0539	-0.106	0.326
48	FABP6	2.03 (active)	2.25	3.13
49	POLH	1.13	-0.0893	0.327
50	PHLPP2	0.828	3.54	0.461
51	ROPN1	-0.144	-0.884	-0.679
52	OR5AC2	-1.05	0.185	-0.224
53	RSAD1	-0.243	-1.39	-0.56
54	LINC00895	-1.19	-1.26	-1.04
55	KCNH1	1.51	1.46	1.42
56	CENPT	2.04 (active)	2.04	2.07
57	MMP12	-0.659	0.308	0.19
58	RANBP2	-0.152	0.0607	-0.144
59	ROCK2	-0.746	-1.18	-1.43
60	CPA2	-0.184	-0.371	-0.74
61	ITIH5	0.568	0.177	0.396
62	ELFN2	-0.0771	-1.34	-0.684
63	CPEB3	-0.413	0.0326	-0.0786
64	WDR6	-1.28	-2.27	-1.09
65	RPL13AP23	2.07 (active)	2.32	2.1
66	FABP4	1.44	-0.261	-2.79
67	LOC147942 (retired record)	-0.258	-0.00478	-0.129
68	ZNF778	0.83	0.0025	0.408
